In PubChem BioAssay AID504444 (National Center for Advancing Translational Sciences (NCATS), 2011):
The whole screen tested about 360,000 compounds, of which about 7,500 (2.1%) were called active. This list was built around the results that the source calls inconclusive (neither active nor inactive); the mix of calls is not that of the screen. Calls come from the whole dose curve; as a rule, active = well fitted inhibition curve with a large enough effect; inconclusive = small, poorly fitted or top-dose-only effect, or effect the other way; inactive = flat fitted curve, though single readings scatter. Potencies of inconclusive entries are doubtful fits and often do not repeat.

experiment: Nrf2 qHTS screen for inhibitors; settings: A549 ARE-Fluc reporter, luciferase luminescence, 18-24 h; series mostly up to 46 µM; note: nearly all actives have a fitted effect of over 60% in size
Method in brief: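 Reporter: ARE-Fluc in A549. Exposure: 18-24 h, 37 °C, 5% CO2, 5% FBS OPTI-MEM. Readouts: fluorescent cytotoxicity (CellTiter-Fluor), then luminescent Nrf2 signal after BugLite.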
Potency is the fitted concentration of half-maximal effect.

Compound | Potency
Cn1cc(C[C@H](C(=O)O)N2C(=O)c3ccc(C(=O)O)cc3C2=O)c2ccccc21 | inactive
CC(NC(=O)c1ccccc1NC(=O)CN1CCN(c2ccccc2O)CC1)c1ccccc1 (centres undefined) | inconclusive: 32.6 µM [falling, single point]
Cc1cc(C(=O)CN2C(=O)c3ccccc3S2(=O)=O)c(C)n1C(C)C | active: 2.91 µM
CC(C)Cc1nnc(NC(=O)c2cc3c(s2)CCC3)s1 | inconclusive: 13 µM [activator, partial curve, poor fit]
Cc1ccc(NS(=O)(=O)c2c(C)nc3sccn3c2=O)cc1 | inconclusive: 11.6 µM [falling, partial curve, poor fit]
CCOC(=O)c1cc2c(ccn2C)n1CC(=O)N1CCN(c2cccc(C(F)(F)F)c2)CC1 | inconclusive: 13 µM [falling, single point]
CC(=O)Nc1ccc2c(c1)C(=Nc1ccc(C)cc1)c1ccccc1-2 | inactive
O=C(Nc1ccc(F)c(Cl)c1)C1CCCN(S(=O)(=O)c2cccc3nsnc23)C1 (centres undefined) | inconclusive: 29.1 µM [falling, single point]
COc1cc2c(cc1OC)C(c1ccc(C(F)(F)F)cc1)CC(=O)N2 (centres undefined) | inconclusive: 6.51 µM [falling, partial curve, poor fit]
CN(CC(=O)Nc1cccc(F)c1)C(=O)c1ccc(N2CCOCC2)c([N+](=O)[O-])c1 | inconclusive: 29.1 µM [falling, partial curve, poor fit]
CCOC(=O)c1cnc(-n2nc(C)cc2C)nc1NCc1ccc2c(c1)OCO2 | inconclusive: 20.6 µM [falling, single point]
CCCCCn1c(CN2CCN(c3cccc(Cl)c3)CC2)nc2c1c(=O)n(C)c(=O)n2C | inconclusive: 23.1 µM [falling, partial curve, poor fit]
CCCOc1ccc(C(=O)CCNC(Cc2c[nH]c3ccccc23)C(=O)O)cc1 (centres undefined) | inactive
Cc1cc(NC(=O)CSc2nc3c(c(-c4cccnc4)c2C#N)CCC3)no1 | inconclusive: 1.84 µM [falling, full curve, poor fit]
CCCCNC(=O)Cn1c(SCc2cccc(C)c2)nc2ccncc21 | inconclusive: 16.4 µM [activator, partial curve, poor fit]
CC(C)(C)c1ccc(S(=O)(=O)Nc2ccc(Cc3ccncc3)cc2)cc1 | active: 9.2 µM
CSC(=S)N/N=C/c1ccc(N(C)C)cc1 | inconclusive: 18.4 µM [activator, single point]
COc1ccc(OC)c(/C=C/C(=O)Nc2cccc(S(=O)(=O)NC3=NCCCCC3)c2)c1 | inconclusive: 20.6 µM [falling, partial curve, poor fit]
Cc1cccc(NC(=O)c2ccc(S(=O)(=O)N3CCCCC3)cc2)n1 | inconclusive: 25.9 µM [falling, single point]
N=c1c2c(ccn1-c1ccccc1)Oc1ccc3ccccc3c1C2c1ccccc1 (centres undefined) | active: 16.4 µM
O=C(c1nnc(-c2ccc(Cl)cc2)o1)C1CCCC1 | inconclusive: 16.4 µM [activator, single point]
Cc1[nH]c(C)c(S(=O)(=O)N2CCN(c3cccc(Cl)c3)CC2)c1C(=O)N1CCCC1 | inconclusive: 0.291 µM [falling, full curve]

Compound | Potency
c1ccc(Cc2cc[n+](Cc3ccccn3)cc2)cc1 | inconclusive: 29.1 µM [falling, single point]
O=c1oc(-c2ccc(O)c(O)c2)cc2cccc(O)c12 | inactive
O=C(Nc1nccs1)c1ccc(-c2ccccc2[N+](=O)[O-])o1 | inconclusive: 9.2 µM [activator, partial curve, poor fit]
Cc1ccnc(NC(c2ccccn2)c2c(C)[nH]c3ccccc23)c1 (centres undefined) | inconclusive: 23.1 µM [falling, partial curve]
CCc1ccc(CN2CCC(n3nccc3NC(=O)C3CCCC3)CC2)cc1 | inactive
CCOC(=O)c1c(C)[nH]c(N=Nc2cccc(C)c2)c1C | inconclusive: 0.082 µM [activator, full curve, poor fit]
COc1cccc(CN(C)C(=O)CCNC(=O)c2ccc(Br)cc2)c1 | inconclusive: 29.1 µM [falling, single point]
O=C(NC1CCCCCC1)c1cc(S(=O)(=O)N2CCC3(CC2)OCCO3)ccc1F | inconclusive: 25.9 µM [falling, partial curve, poor fit]
NS(=O)(=O)c1ccc(NC(=O)/C=C/c2cn(-c3ccccc3)nc2-c2cccc(Cl)c2)cc1 | inconclusive: 29.1 µM [falling, single point]
Fc1cc(F)cc(-c2c(-c3ccccc3)ncc3ccc(F)cc23)c1 | inconclusive: 32.6 µM [activator, partial curve, poor fit]
O=C(O)c1ccccc1C(=O)Nc1ccc(S(=O)(=O)Nc2nccs2)cc1 | inactive
CCc1c(C)nc(Nc2nc(C)c3ccc(OC)cc3n2)[nH]c1=O | inconclusive: 16.4 µM [activator, single point]
CC(NC(=O)CCc1nnc(CCCc2ccccc2)o1)c1ccccc1 (centres undefined) | inconclusive: 6.51 µM [activator, partial curve]
CCCCNc1nc(N(C)c2ccccc2)nc(-n2ccnc2)n1 | inconclusive: 29.1 µM [falling, single point]
C=C(C)c1cccc(C(C)(C)NC(=O)N2CCC(C)CC2)c1 | inactive
CC(=O)c1ccc(N2Cc3ccccc3C2=NC(=O)c2cccs2)cc1 | inconclusive: 3.26 µM [activator, partial curve]
COc1ccc(-c2csc(Cc3nnc(N4CCOCC4)n3-c3ccccc3)n2)cc1OC | inconclusive: 29.1 µM [falling, single point]
CN(C)S(=O)(=O)N1CCC(N2CCN(Cc3ccc(F)cc3)C(=O)C2=O)CC1 | inconclusive: 16.4 µM [activator, partial curve, poor fit]
CCOc1ccc(CCNC(=O)CSCc2nc(-c3cccc(C)c3)oc2C)cc1OCC | inconclusive: 16.4 µM [falling, single point]
Cc1sc2nc(SCC(=O)C(C)(C)C)n(Cc3ccco3)c(=O)c2c1C | inconclusive: 29.1 µM [falling, single point]
COc1cccc(-c2csc(N3CCN(C(=S)Nc4ccccc4Cl)CC3)n2)c1 | inconclusive: 29.1 µM [falling, single point]
CCOc1ccc2nc(NC(=O)c3nc(SC(C)C)ncc3Cl)sc2c1 | inactive

Two compounds drawn at random from those above:
Compound | Potency
O=C(NC1CCCCCC1)c1cc(S(=O)(=O)N2CCC3(CC2)OCCO3)ccc1F | inconclusive: 25.9 µM [falling, partial curve, poor fit]
CCc1c(C)nc(Nc2nc(C)c3ccc(OC)cc3n2)[nH]c1=O | inconclusive: 16.4 µM [activator, single point]

Next part:

Compound | Potency
COc1cc(/C=N/Nc2ccc3ccccc3c2)ccc1OC(=O)c1ccco1 | inconclusive: 25.9 µM [activator, partial curve, poor fit]
COc1ccc(-c2nsc(NC(=O)c3ccccc3Br)n2)cc1 | inconclusive: 11.6 µM [activator, partial curve, poor fit]
CCCc1ccc(Oc2cc(N3CCOCC3)nc(-c3ccccc3)n2)cc1 | inactive
O=C(/C=C/c1ccccc1)Nc1ncn[nH]1 | inconclusive: 29.1 µM [falling, single point]
O=C(CSc1ncn[nH]1)CSc1ncn[nH]1 | inconclusive: 0.0517 µM [falling, partial curve, poor fit]
O=C(CCCN1C(=O)C2CCCCN2C1=O)N1CCN(c2ccc([N+](=O)[O-])cc2)CC1 (centres undefined) | inconclusive: 25.9 µM [falling, partial curve]
COc1ccc(CCN(Cc2cc3cc(C)cc(C)c3nc2Cl)C(=O)C2CC2)cc1 | active: 16.4 µM
Cc1ccc2nc3c(cc2c1)CN(Cc1ccco1)C(=NCC1CCCO1)S3 (centres undefined) | inconclusive: 20.6 µM [falling, single point]
COc1cc(NC(=NS(=O)(=O)c2ccccc2)c2ccccc2)ncn1 | inconclusive: 20.6 µM [activator, partial curve]
COc1ccc(CCNC(=O)C(=O)NCCC2CCCCN2S(=O)(=O)c2cccs2)cc1 (centres undefined) | inconclusive: 25.9 µM [falling, partial curve, poor fit]
Nc1ccc(C(=O)NN2C(=O)[C@H](Cl)C2c2ccc(Cl)cc2)cc1 (some centres undefined) | inactive
CCN(CC)C(=O)CSc1nnc(-c2cc(-c3ccc(Cl)cc3)nc3ccccc23)o1 | inconclusive: 0.103 µM [falling, full curve, poor fit]
CC(=O)c1ccc(NC(=O)NC2CCCCCCC2)cc1 | inconclusive: 2.31 µM [activator, full curve]
CC(=O)N1CCc2c(sc3c2c(=O)n(CCc2ccccc2)c(=O)n3Cc2ccc(F)cc2)C1 | inconclusive: 29.1 µM [falling, single point]
O=C(Nc1cc2c(oc1=O)CCCC2=O)c1ccccc1 | inconclusive: 13 µM [activator, partial curve]
CC#CC(=O)N1CCC(C(=O)Nc2ccc(Oc3ccccc3)nc2)CC1 | inconclusive: 2.31 µM [activator, full curve]
Cc1ccccc1NC(=O)Cn1c(=O)n(CCCCCC(=O)NCc2ccc3c(c2)OCO3)c(=O)c2sccc21 | inconclusive: 13 µM [falling, partial curve, poor fit]
COc1ccccc1C(=O)NCC(=O)N/N=C/c1cn[nH]c1-c1ccccc1 | inconclusive: 25.9 µM [falling, partial curve, poor fit]
O=C1c2ccccc2-c2nnc(-c3ccccc3)cc21 | inconclusive: 1.46 µM [activator, full curve]
COC(=O)c1cc2c(-c3ccccc3)cc3ccccn3c-2c1C(=O)OC | inconclusive: 29.1 µM [falling, single point]

Reformatted comma-delimited: 2 of the compounds above
Compound,Potency
CCCc1ccc(Oc2cc(N3CCOCC3)nc(-c3ccccc3)n2)cc1,inactive
O=C(CSc1ncn[nH]1)CSc1ncn[nH]1,"inconclusive: 0.0517 µM [falling, partial curve, poor fit]"
